# From the supplement of paper PMC3334620
# The full ranking holds about 33,000 sequences; the median of “E-score (-0.5 to 0.5)” is about -0.015, and the highest 2% start at about 0.3. The list shows a part of the results.
# Biological target: T1, Abf1 (UniProt P14164)
# T1 sequence: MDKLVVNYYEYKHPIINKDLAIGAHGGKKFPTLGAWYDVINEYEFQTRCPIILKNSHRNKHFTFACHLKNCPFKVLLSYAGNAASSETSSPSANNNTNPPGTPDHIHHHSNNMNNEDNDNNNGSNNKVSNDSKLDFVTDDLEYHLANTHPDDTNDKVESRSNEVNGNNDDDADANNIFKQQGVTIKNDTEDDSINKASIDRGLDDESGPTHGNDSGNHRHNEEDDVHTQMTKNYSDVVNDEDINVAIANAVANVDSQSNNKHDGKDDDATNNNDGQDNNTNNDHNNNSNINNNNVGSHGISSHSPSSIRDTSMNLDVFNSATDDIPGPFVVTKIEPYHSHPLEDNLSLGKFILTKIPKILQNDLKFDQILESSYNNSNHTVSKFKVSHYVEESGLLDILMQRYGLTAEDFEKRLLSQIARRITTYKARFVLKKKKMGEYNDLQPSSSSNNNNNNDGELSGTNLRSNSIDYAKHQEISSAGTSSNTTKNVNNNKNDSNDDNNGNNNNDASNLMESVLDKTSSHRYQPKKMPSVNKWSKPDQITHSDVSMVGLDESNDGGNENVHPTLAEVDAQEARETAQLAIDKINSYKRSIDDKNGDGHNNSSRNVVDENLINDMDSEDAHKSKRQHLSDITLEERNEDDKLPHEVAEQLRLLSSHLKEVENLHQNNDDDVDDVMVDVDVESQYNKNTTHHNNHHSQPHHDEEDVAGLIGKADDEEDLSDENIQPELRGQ
# Test: PBM E-score (8-mer binding enrichment) (E-score (-0.5 to 0.5)); higher = stronger / more preferred TF binding
# Details: protein concentration: 200 nM; construct: GST-full length
# How it was run: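 E-scores (a modified Wilcoxon-Mann-Whitney statistic) were assigned by the Universal PBM Analysis Suite to every ungapped eight-base word pooled with its reverse complement. The input came from universal all-10-mer Agilent arrays made double-stranded by primer extension and probed with GST-tagged yeast transcription factors at about 100-200 nM. Fluorescent anti-GST detected bound protein, and masliner normalised the scans.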
row,Sequence,PBM E-score
1,ACATATAA,0.204
2,AGTTGGTC,-0.0718
3,ATTCGAAA,0.107
4,GGATGCAC,-0.2
5,GCCGGCAC,-0.0153
6,GGGGCCAC,-0.357
7,GAGGGACC,-0.176
8,CTTAAGTC,-0.0516
9,CAAATCGC,-0.0589
10,CAACAGCG,-0.243
11,AACGCCCT,-0.0277
12,ACGCTCGG,-0.056
13,CGGAGGAG,-0.244
14,ATTATACA,0.0365
15,CCGAACCG,-0.0651
16,AGCGACAT,0.289
17,AAAACGAT,0.326
18,CAAGGAGA,-0.216
19,CGCGCATA,0.118
20,AGGAACCG,-0.0421
21,CACGCGAC,0.032
22,GGACGGTA,0.134
23,AGGACGAT,0.214
24,GCCTGTCA,-0.106
25,CCTCTGGA,-0.0278

# Taken from above:
# For PBM E-score, AACGCCCT reads -0.0277
# For PBM E-score, ACATATAA reads 0.204
# For PBM E-score, CCGAACCG reads -0.0651

# (continued)

row,Sequence,PBM E-score
1,ACATAAGG,0.0807
2,ATCGGAAT,0.0728
3,ACACCCTA,0.102
4,AAGCAACC,-0.0212
5,AGTTGAAG,-0.0636
6,CCGCAGCC,-0.137
7,CACATAAC,-0.0203
8,CCGTTCGC,0.138
9,AACTGACG,0.0253
10,AGAGCGCT,-0.0498
11,ATCCGACG,0.155
12,AACACATC,0.0803
13,GGTTACTA,-0.112
14,AAGCAATG,0.0852
15,CCTTTAAA,-0.302
16,GCGACGAA,0.313
17,ACGTAAAA,0.317
18,AAGAGATT,-0.0636
19,TAAGGCTA,-0.0183
20,ACCTTACA,-0.0618
21,CCGCACGC,-0.186
22,CCCTTGTC,-0.103
23,GGAGATAA,0.0908
24,ATAGTGCC,-0.0726
25,CCCTCGCA,-0.244

row,Sequence,PBM E-score
1,GGTCAAAC,-0.00041
2,GCAACTGA,-0.019
3,GTCGGAAC,0.0618
4,GCTCAGAA,-0.184
5,ACACGCAG,-0.105
6,GGGATAAA,0.118
7,GCTCCTAA,-0.21
8,AGGATCCC,-0.144
9,GCATCCGC,-0.0484
10,ACGCCTGC,-0.0732
11,ACTTTAAG,-0.00861
12,CCTTTTGC,0.00767
13,TATTAGGA,0.14
14,ATCGGCCC,0.0117
15,AAACAGAA,0.023
16,CCTCACTA,0.159
17,CTTCCAGA,-0.0365
18,CTCATACA,-0.0831
19,CGGCGTAA,-0.0111
20,AATTCCAA,0.116
21,GCATGTGA,0.0113
22,CGACAGCA,-0.128
23,GTCGCATA,0.175
24,GACATGCA,-0.11
25,ATGGGTCG,-0.109

row,Sequence,PBM E-score
1,ACCTGAGT,-0.0532
2,CGACCTTC,0.0167
3,AGGCCTTC,-0.0303
4,ACTGGCAG,-0.165
5,GATCTCGA,0.0914
6,AGATACAG,-0.0394
7,AAGGCTCT,-0.195
8,CACTCACC,-0.0641
9,AGAAGAAT,-0.0254
10,AGTCCCCC,-0.301
11,ATGTCCCC,0.12
12,CCTTTGGA,-0.13
13,ATTACTTC,-0.0372
14,CTCTTAAA,0.00665
15,CTTATATC,0.236
16,AGGATAGA,-0.0436
17,CCTAATCA,0.0715
18,AGATCCCC,-0.0182
19,AGCCCATG,-0.036
20,ATGGCATA,-0.00935
21,AGTCTCGG,-0.0348
22,AGCCCTAA,-0.168
23,ACACACGA,0.279
24,CTATCCAC,0.0745
25,CGACTATA,0.129

# An excerpt of these results, with tabs.
row	Sequence	PBM E-score
3	AGGCCTTC	-0.0303
5	GATCTCGA	0.0914
13	ATTACTTC	-0.0372

# The list goes on.

row,Sequence,PBM E-score
1,ATACTGCA,0.036
2,CGCCACTC,-0.0834
3,CAGATCAG,0.0875
4,ACTGGATC,-0.13
5,AAATGAAT,-0.0215
6,AGATAATA,0.107
7,CGTTCCTA,0.0602
8,AAAGCGCC,-0.169
9,GAGGTGCA,-0.0307
10,AGAGAAAT,0.135
11,AAACGTGG,-0.115
12,TTGGCAAA,0.0371
13,CTAGTCAA,-0.0964
14,CGGCCAAG,-0.0491
15,GGGTAGAC,-0.0257
16,ACCATGAT,0.0777
17,ATCTCACC,0.147
18,ACATCCTC,0.00654
19,ACCTTGAC,-0.0458
20,TAATGGCA,0.0202
21,CTCTTGCA,-0.162
22,AGTCTCCA,0.065
23,CTCCGCGA,-0.0493
24,CGCTCGCC,-0.0715
25,CCATTGCC,-0.264

# Random excerpt: 2 records from the list.
row,Sequence,PBM E-score
20,TAATGGCA,0.0202
21,CTCTTGCA,-0.162

# (continued)

row,Sequence,PBM E-score
1,CCGATGAG,-0.18
2,CCGAATCC,0.13
3,GGTGTGTA,-0.0157
4,GCTCAAGA,-0.116
5,CTGTATTC,-0.048
6,ACGCTAAT,0.00078
7,CAGGACGG,-0.0334
8,ACAGTGCT,0.122
9,ATCTCAAT,0.15
10,ACGAACTC,0.257
11,ATATGTCG,0.288
12,AGTCACTG,0.0546
13,GGCTGGAC,-0.282
14,CTCCTTAA,-0.12
15,ATTTAAAC,0.0999
16,AATATACA,0.0254
17,GGTGGTGA,0.14
18,CGTGTTCA,0.177
19,TAACCTTA,-0.0269
20,CCATCAAC,0.0413
21,CAATGAAG,0.0513
22,AATAGTAT,0.079
23,AACAGAGA,-0.09
24,ATGGGGCC,-0.384
25,CTATGTTC,-0.142

row,Sequence,PBM E-score
1,ACACTAGC,0.0858
2,AACTTATT,0.0636
3,AACGGTTA,0.0157
4,AGACCACT,-0.0535
5,AATAAGTC,-0.102
6,GCCAGCGA,-0.00177
7,CGGGGGTC,-0.205
8,AAATACAA,0.155
9,CGGACACG,0.112
10,AACTGTAG,-0.2
11,AAGTATCC,0.0928
12,CATGAAAA,0.101
13,GGGAACCC,-0.0593
14,CGACGAGA,0.13
15,CCGGCTCG,-0.0287
16,GCCTGTAC,0.0979
17,CACTTCGC,-0.0429
18,CCGACTCG,-0.113
19,AGATTTGG,-0.145
20,TACATCAA,0.018
21,CACAACCA,0.0715
22,AATTCTGC,0.059
23,GAGTGGGC,-0.242
24,AAGCGGCG,-0.0976
25,AACACTGA,-0.142

row,Sequence,PBM E-score
1,CTATTGCC,-0.215
2,GCAGAGCC,-0.203
3,CGGCGTGC,-0.154
4,GGGCTAAC,-0.117
5,AACTCATC,0.0775
6,CACGCTAG,0.00309
7,CCGAAACC,-0.172
8,ACTCCATG,-0.16
9,AGAATCAA,0.0578
10,CCGTTCAA,0.26
11,AACGGAAG,-0.0304
12,GTAATCCA,0.0963
13,CATCTGCA,-0.02
14,GGATCCCC,-0.241
15,CTTGGCCC,-0.372
16,GTGCTACA,0.0409
17,AGCTTGTG,-0.162
18,GTTGCCCA,-0.00325
19,CCTCTGGC,-0.119
20,AGGGAGAC,-0.188
21,ACGTGGAA,0.118
22,TTCGAAAA,0.289
23,AGGATGAG,-0.0187
24,ATTTAGCA,0.193
25,TAGCAGAA,0.113

row,Sequence,PBM E-score
1,ACCAAGAA,-0.00575
2,CGCGAATC,0.0291
3,AAGTAGTA,0.212
4,ATACTCCC,-0.0156
5,CGTCAGTA,0.104
6,AAAACGAG,0.0711
7,AGGTTTAA,-0.0621
8,CCGGCGAG,-0.139
9,GAGGGAGC,-0.274
10,TGATATAA,0.281
11,ACTGCTTG,-0.205
12,ACTACAGA,0.0352
13,ATCCCCTG,-0.108
14,AAGCCATC,0.14
15,ATGCTGAA,-0.0362
16,GTCATCAC,0.334
17,AATATTAG,0.214
18,GCCTCTCC,-0.266
19,GAACACAA,-0.0576
